The other results are listed elsewhere or left out.
Compound: CC1Cc2ccccc2N1C(=O)C1CCCN(C1)C(=O)CCl (mixture of isomers) [TRIM25 ligand 11 (diastereomer mixture)]
Test: probe-labelled cysteine peptide fold change vs DMSO (competition) (log2 fold change); higher = less target engagement (more negative = stronger competition)
Conditions: THP-1, incubation time: 4 h
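Further: competitive chemoproteomic profiling in live THP-1 cells with an iodoacetamide desthiobiotin (IA-DTB) probe, comparing probe-labelled peptide intensities in compound-treated cells against DMSO-treated controls.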

Protein sequences, listed by entry. Tags and fused reporters are not part of them. Lines headed by an entry give the natural chain unless they say otherwise; changes in a name come on top.
UniProt Q5SRE5: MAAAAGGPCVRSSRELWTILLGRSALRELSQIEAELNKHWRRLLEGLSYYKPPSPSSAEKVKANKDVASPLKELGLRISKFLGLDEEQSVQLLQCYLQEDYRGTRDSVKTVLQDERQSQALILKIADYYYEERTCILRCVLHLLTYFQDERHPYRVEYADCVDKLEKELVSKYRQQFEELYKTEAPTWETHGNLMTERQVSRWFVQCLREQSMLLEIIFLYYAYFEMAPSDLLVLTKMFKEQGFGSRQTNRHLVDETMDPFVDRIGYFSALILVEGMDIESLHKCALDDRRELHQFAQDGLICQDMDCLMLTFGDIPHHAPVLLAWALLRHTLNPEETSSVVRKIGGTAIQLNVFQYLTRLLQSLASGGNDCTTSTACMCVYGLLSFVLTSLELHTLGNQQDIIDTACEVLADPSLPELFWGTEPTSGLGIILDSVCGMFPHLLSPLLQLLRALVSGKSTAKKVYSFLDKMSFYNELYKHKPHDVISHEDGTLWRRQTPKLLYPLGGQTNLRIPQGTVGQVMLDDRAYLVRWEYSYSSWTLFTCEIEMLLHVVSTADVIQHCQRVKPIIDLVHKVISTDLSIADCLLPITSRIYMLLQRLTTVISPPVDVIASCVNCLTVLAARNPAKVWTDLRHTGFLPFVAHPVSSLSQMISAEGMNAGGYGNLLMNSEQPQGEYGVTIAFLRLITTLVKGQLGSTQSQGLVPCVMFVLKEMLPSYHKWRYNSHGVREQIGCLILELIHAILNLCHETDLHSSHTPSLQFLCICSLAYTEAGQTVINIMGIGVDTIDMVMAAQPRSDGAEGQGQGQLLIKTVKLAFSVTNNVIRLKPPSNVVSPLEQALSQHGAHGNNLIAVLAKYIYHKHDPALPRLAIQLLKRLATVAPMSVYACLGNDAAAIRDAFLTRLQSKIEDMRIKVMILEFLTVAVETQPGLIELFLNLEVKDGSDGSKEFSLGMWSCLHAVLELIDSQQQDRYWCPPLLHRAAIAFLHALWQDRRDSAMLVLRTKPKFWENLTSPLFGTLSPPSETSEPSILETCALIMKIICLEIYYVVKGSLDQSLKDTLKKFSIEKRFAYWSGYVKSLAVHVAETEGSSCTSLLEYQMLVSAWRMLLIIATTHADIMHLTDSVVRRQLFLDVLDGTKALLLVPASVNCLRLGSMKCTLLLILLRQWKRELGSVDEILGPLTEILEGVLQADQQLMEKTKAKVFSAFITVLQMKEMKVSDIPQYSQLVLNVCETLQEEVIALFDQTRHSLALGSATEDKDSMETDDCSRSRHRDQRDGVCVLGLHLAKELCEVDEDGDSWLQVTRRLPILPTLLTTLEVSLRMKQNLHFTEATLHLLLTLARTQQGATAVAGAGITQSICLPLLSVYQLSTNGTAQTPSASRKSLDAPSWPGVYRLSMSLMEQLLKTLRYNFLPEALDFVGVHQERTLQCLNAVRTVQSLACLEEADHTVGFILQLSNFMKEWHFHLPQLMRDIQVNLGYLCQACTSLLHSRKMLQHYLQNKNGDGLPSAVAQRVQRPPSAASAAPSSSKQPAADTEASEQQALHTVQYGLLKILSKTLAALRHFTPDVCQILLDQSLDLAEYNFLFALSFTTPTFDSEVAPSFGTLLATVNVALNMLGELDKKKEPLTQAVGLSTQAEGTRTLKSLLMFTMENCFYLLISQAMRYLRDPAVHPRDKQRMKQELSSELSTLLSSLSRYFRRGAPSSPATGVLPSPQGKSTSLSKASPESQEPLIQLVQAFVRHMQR
UniProt O15381: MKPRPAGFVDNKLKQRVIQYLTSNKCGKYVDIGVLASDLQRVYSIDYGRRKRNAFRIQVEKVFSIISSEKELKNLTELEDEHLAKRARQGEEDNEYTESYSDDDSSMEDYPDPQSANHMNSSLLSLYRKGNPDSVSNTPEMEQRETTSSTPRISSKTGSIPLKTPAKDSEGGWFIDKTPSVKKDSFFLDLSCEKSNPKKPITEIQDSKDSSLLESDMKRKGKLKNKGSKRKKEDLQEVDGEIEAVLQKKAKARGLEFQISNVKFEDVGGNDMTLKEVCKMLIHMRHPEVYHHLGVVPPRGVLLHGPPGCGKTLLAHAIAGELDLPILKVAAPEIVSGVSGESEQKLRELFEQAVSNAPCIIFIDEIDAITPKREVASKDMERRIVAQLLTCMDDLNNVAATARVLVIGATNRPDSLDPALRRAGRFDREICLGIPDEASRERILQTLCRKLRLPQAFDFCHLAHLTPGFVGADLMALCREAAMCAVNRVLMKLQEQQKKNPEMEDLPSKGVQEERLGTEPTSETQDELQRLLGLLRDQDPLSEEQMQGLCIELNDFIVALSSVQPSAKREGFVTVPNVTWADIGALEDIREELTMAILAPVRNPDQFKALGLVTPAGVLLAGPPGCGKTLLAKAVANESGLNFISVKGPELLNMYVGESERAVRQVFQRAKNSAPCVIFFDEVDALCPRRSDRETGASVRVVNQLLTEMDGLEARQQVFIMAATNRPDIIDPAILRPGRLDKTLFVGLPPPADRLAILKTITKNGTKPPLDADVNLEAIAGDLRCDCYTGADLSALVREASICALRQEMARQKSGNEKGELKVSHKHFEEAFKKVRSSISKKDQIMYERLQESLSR
UniProt P57740: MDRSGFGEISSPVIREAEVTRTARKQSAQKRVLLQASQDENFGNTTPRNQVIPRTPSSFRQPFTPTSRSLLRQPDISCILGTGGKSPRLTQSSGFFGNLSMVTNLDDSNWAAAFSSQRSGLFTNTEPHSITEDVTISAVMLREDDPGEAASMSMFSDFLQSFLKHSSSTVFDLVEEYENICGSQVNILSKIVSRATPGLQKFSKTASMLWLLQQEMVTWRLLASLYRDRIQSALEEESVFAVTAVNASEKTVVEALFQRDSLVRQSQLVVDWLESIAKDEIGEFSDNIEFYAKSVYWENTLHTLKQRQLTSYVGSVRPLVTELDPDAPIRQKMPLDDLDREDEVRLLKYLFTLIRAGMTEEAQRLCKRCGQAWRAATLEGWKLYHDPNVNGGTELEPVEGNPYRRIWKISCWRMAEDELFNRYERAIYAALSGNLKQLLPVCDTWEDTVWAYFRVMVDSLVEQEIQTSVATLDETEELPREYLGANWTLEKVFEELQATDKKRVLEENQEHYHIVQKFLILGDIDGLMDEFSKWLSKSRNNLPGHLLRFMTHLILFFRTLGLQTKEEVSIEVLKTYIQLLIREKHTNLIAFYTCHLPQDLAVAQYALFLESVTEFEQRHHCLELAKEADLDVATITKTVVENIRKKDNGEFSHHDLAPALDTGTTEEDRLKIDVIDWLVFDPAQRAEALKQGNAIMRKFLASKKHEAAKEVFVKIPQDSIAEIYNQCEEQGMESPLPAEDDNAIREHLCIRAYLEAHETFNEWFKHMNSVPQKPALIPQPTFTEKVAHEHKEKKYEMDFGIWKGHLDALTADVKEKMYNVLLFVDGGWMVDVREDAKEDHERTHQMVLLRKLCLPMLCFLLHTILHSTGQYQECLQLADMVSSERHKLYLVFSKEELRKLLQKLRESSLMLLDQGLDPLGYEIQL
UniProt Q8TEM1: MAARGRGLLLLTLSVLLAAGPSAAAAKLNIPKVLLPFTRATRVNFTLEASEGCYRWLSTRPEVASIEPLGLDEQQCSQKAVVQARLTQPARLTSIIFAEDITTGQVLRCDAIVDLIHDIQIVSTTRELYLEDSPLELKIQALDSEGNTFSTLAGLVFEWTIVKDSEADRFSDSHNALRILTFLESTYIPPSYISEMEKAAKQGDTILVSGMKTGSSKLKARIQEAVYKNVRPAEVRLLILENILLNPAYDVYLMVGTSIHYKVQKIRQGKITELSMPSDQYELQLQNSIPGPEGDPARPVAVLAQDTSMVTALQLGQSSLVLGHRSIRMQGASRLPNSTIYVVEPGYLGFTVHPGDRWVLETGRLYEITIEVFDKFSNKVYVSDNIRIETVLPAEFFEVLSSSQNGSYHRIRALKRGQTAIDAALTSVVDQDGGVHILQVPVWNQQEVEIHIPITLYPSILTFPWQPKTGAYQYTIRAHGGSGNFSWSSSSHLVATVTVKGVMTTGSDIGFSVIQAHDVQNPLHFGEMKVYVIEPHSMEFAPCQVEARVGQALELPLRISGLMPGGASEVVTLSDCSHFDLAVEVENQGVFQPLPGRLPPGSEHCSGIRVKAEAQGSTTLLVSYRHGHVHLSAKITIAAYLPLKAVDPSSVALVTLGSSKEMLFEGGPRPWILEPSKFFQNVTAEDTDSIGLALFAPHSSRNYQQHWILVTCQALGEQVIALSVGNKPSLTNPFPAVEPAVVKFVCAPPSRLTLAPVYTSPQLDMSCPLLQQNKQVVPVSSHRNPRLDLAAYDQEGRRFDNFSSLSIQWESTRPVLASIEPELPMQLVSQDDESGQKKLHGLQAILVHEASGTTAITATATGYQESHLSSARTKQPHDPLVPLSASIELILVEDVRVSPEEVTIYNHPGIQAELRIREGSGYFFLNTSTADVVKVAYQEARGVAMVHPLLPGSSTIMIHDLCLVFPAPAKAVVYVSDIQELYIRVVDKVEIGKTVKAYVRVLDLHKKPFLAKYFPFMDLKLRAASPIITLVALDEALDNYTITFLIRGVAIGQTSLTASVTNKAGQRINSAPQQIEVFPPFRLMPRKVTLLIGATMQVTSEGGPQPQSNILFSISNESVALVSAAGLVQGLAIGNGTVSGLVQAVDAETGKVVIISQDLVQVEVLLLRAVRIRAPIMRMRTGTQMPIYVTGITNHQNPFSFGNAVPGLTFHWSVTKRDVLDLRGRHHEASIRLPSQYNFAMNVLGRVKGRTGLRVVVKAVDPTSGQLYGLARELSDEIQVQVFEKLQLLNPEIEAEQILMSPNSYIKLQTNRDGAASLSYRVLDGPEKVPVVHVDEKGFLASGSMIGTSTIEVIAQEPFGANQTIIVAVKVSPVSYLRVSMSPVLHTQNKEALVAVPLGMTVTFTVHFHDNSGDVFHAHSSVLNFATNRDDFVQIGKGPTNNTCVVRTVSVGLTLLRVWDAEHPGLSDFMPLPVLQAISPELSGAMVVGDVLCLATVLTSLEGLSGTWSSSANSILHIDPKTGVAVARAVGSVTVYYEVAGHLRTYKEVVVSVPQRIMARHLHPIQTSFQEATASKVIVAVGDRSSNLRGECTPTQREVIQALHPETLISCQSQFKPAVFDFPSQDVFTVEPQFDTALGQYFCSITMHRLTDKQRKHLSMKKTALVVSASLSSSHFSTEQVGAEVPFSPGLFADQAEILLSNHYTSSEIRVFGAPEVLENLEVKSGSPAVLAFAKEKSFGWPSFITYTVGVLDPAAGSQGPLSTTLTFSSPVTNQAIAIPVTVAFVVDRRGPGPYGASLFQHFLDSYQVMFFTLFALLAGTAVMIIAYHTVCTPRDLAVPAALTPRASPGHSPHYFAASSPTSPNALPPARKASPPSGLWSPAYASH
UniProt Q56VL3: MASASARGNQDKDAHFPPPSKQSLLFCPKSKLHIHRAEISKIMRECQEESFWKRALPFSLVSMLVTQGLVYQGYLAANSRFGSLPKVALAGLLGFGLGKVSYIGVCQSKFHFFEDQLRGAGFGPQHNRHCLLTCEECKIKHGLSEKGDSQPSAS
UniProt Q99567: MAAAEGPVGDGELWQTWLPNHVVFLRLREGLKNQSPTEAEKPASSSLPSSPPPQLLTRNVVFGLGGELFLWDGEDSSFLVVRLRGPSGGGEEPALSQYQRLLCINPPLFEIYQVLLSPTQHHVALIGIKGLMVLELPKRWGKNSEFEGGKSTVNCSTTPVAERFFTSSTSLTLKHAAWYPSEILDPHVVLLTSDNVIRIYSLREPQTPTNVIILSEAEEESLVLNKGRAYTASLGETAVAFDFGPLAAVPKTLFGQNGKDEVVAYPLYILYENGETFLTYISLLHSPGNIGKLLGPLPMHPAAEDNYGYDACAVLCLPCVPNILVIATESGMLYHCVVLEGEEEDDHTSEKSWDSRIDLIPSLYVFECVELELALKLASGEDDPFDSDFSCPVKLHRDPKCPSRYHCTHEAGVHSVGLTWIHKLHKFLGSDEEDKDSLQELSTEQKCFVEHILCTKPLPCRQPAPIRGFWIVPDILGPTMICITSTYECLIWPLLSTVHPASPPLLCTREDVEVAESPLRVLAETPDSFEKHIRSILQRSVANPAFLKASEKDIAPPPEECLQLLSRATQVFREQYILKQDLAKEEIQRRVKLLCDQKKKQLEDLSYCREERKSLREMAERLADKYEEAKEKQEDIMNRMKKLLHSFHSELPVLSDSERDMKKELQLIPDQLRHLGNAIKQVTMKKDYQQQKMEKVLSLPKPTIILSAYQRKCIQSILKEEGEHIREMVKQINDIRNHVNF
UniProt Q9Y5Y2: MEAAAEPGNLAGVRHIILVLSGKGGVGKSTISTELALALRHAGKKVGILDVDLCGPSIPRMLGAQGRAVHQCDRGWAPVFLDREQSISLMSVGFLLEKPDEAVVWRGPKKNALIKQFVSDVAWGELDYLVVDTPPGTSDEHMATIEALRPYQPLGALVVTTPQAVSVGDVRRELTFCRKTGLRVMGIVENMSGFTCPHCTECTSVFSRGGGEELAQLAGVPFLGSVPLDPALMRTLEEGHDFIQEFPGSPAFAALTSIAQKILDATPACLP

Target	probe-labelled cysteine peptide fold change (10 µM)	probe-labelled cysteine peptide fold change (50 µM)
NUP155_O75694_356_SVFKPIVQIAVIENSESLDCQLLAVTHAGVR (UniProt O75694)	0.122	0.226
OGA_O60502_166_RKLDQVSQFGCR (UniProt O60502)	-0.0194	-0.0376
NUP205_Q92621_1032_TCLHAILNILEK (UniProt Q92621)	0.00038	-0.0819
NUSAP1_Q9BXS6_64_KGNENQDESQTSASSCDETEIQISNQEEAERQPLGHVTK (UniProt Q9BXS6)	-0.273	-0.0073
NUP58_Q9BVL2_252_ALKDENLPPVICQDVENLQK (UniProt Q9BVL2)	-0.264	-0.411
NUDCD1_Q96RS6_7_MEVAANCSLR (UniProt Q96RS6)	0.178	-0.22
NUP37_Q8NFH4_96_FCTSAADMK (UniProt Q8NFH4)	-0.00249	0.0547
NUP188_Q5SRE5_1283_DGVCVLGLHLAK (UniProt Q5SRE5)	-0.0712	-0.224
NUDT12_Q9BQG2_177_LCQLNYTDIK (UniProt Q9BQG2)	0.246	0.189
NUDT18_Q6ZVK8_185+189_HPLILPQELPCDLVCQR (UniProt Q6ZVK8)	-0.0276	0.194
NUDCD1_Q96RS6_376_DSAQCAAIAER (UniProt Q96RS6)	-0.11	-0.0353
NVL_O15381_687_NSAPCVIFFDEVDALCPR (UniProt O15381)	0.137	-0.182
NUFIP2_Q7Z417_234_GCENLNIVQDK (UniProt Q7Z417)	-0.0264	0.102
NUDT9_Q9BW91_347_DAHWSEDSEADCHAL (UniProt Q9BW91)	-0.0365	-0.273
NUP133_Q8WUM0_702_EVSQVDTICECLLEHEEQVLR (UniProt Q8WUM0)	0.104	0.265
NUP205_Q92621_1662_CQDVSAGSLQELALLTGIISK (UniProt Q92621)	0.0616	-0.0523
NUP133_Q8WUM0_530_AAFLQYCR (UniProt Q8WUM0)	0.0754	0.164
NUDT19_A8MXV4_220_RFDTAFFLCCLR (UniProt A8MXV4)	0.137	0.168
NUP107_P57740_749_EHLCIR (UniProt P57740)	0.128	0.0884
NUP210_Q8TEM1_543_VYVIEPHSMEFAPCQVEAR (UniProt Q8TEM1)	-0.131	-0.0586
NUDT16_Q96DE0_23_HACHALLYAPDPGMLFGR (UniProt Q96DE0)	0.132	0.285

Target	probe-labelled cysteine peptide fold change (10 µM)	probe-labelled cysteine peptide fold change (50 µM)
NUP85_Q9BW27_112_ACMEEMHQVAIAAK (UniProt Q9BW27)	-0.0575	-0.0569
OCRL_Q01968_64+82_CVQEAEETLLIDIASNSGCK (UniProt Q01968)	-0.138	-0.458
NUP210_Q8TEM1_1592_GECTPTQR (UniProt Q8TEM1)	0.0853	0.177
NUP153_P49790_1065_SASVAPFTCK (UniProt P49790)	-0.0674	-0.0235
NUP98_P52948_1312_WLSCTATPQIEEEVSLTQK (UniProt P52948)	-0.074	-0.163
NTMT1_Q9BV86_184_DNMAQEGVILDDVDSSVCR (UniProt Q9BV86)	-0.169	0.0162
OCRL_Q01968_28_GPLREPCALTLAQR (UniProt Q01968)	-0.00867	0.0595
OGDH_Q02218_956_YPNAELAWCQEEHK (UniProt Q02218)	-0.0561	-0.162
NXF1_Q9UBU9_328_LEELWLDGNSLCDTFR (UniProt Q9UBU9)	0.301	0.17
NXF1_Q9UBU9_252_SCMAATLR (UniProt Q9UBU9)	-0.00854	0.0649
NUP155_O75694_104_RVPLPPELVEQFGHMQCNCMMGVFPPISR (UniProt O75694)	-0.00238	0.0117
NUBP1_P53384_235_VKLPIIGVVENMSGFICPK (UniProt P53384)	-0.377	-0.0216
OCIAD2_Q56VL3_106_VSYIGVCQSK (UniProt Q56VL3)	-0.0503	0.116
NUP88_Q99567_561_DIAPPPEECLQLLSR (UniProt Q99567)	-0.0661	-0.136
OFD1_O75665_157_ESCNMETQTSSTFNR (UniProt O75665)	-0.017	-0.197
NUP188_Q5SRE5_1270_DSMETDDCSR (UniProt Q5SRE5)	-0.000917	-0.14
OARD1_Q9Y530_38_TDSLAHCISEDCR (UniProt Q9Y530)	0.11	0.0731
NUP50_Q9UKX7_428_NNVLIVCVPNPPIDEK (UniProt Q9UKX7)	0.0521	-0.0512
NUDT12_Q9BQG2_18_QEIVTQFHCSAAEGDIAK (UniProt Q9BQG2)	0.00547	-0.3
NUMB_P49757_611_HTEVPTGTCPVDPFEAQWAALENK (UniProt P49757)	-0.101	-0.273
NUP50_Q9UKX7_416_ADTNLGNILLNVLIPPNMPCTR (UniProt Q9UKX7)	-0.223	-0.24

Target	probe-labelled cysteine peptide fold change (10 µM)	probe-labelled cysteine peptide fold change (50 µM)
NTMT1_Q9BV86_195_IICSAGLSLLAEERQENLPDEIYHVYSFALR (UniProt Q9BV86)	-0.201	-0.526
NUP210_Q8TEM1_746_FVCAPPSR (UniProt Q8TEM1)	0.0568	0.329
NUDCD1_Q96RS6_32_LSLEPLPCYQLELDAAVAEVK (UniProt Q96RS6)	0.38	0.116
NT5DC1_Q5TFE4_139_YYFYDNYFDLPGALLCAR (UniProt Q5TFE4)	0.416	0.718
NUDT3_O95989_68_EVCEEAGVK (UniProt O95989)	-0.0889	-0.00724
NUP210_Q8TEM1_767_LTLAPVYTSPQLDMSCPLLQQNK (UniProt Q8TEM1)	0.12	-0.0136
NUP85_Q9BW27_265_WQHWHEECER (UniProt Q9BW27)	0.242	0.144
NUP50_Q9UKX7_181_HVNTNPLCDLTPIFK (UniProt Q9UKX7)	0.189	-0.0447
NUP37_Q8NFH4_149_EGQEIASVSDDHTCR (UniProt Q8NFH4)	0.172	0.196
OCIAD2_Q56VL3_134_HCLLTCEECK (UniProt Q56VL3)	-0.0564	0.0524
NXF1_Q9UBU9_588_CLQDNNWDYTR (UniProt Q9UBU9)	0.125	0.13
NT5DC1_Q5TFE4_179_ENCGIYFPEIK (UniProt Q5TFE4)	-0.13	0.043
NUP98_P52948_760_GECIVSDFTIGRK (UniProt P52948)	-0.203	-0.173
ODF2_Q5BJF6_708_TRECGTLAR (UniProt Q5BJF6)	0.0159	0.317
NT5DC3_Q86UY8_506_FADIYMASLSCLLNYDVSHTFYPR (UniProt Q86UY8)	-0.461	-0.393
NUP88_Q99567_155_STVNCSTTPVAER (UniProt Q99567)	0.0346	-0.0177
NUDCD1_Q96RS6_402+410+421_EKPPCNAQELEECDIFFEESSSLCR (UniProt Q96RS6)	-0.124	0.0365
NUP160_Q12769_558_FYACCLQYQEALSHPLALHLNPHTNMVCLLK (UniProt Q12769)	0.0527	0.144
NUP205_Q92621_698_CEEYPLTR (UniProt Q92621)	0.137	0.196
OAS3_Q9Y6K5_73_GGCDSELVIFLDCFK (UniProt Q9Y6K5)	-0.0584	-0.0297
OCRL_Q01968_611_LNDSQYCKPWLR (UniProt Q01968)	-0.48	-0.46

Target	probe-labelled cysteine peptide fold change (10 µM)	probe-labelled cysteine peptide fold change (50 µM)
OGA_O60502_896_LGCFEIAK (UniProt O60502)	0.0886	0.0375
NUBP2_Q9Y5Y2_202_VMGIVENMSGFTCPHCTECTSVFSR (UniProt Q9Y5Y2)	0.32	-0.17
OCRL_Q01968_611_LNDSQYCK (UniProt Q01968)	0.0644	0.0168
NUB1_Q9Y5A7_400_ACDGNVDHAATHITNRR (UniProt Q9Y5A7)	-0.102	-0.274
NUDCD1_Q96RS6_111_LPTDLTACDNR (UniProt Q96RS6)	0.181	0.22
NUP37_Q8NFH4_172_IWNLEGVQTAHFVLHSPGMSVCWHPEETFK (UniProt Q8NFH4)	0.0758	-0.0133
NUBP2_Q9Y5Y2_269_ILDATPACLP (UniProt Q9Y5Y2)	0.0519	-0.094
NUP54_Q7Z3B4_171_GYFNNNIPPVEFTQENPFCR (UniProt Q7Z3B4)	-0.0322	-0.122
NUP153_P49790_148_SHLNFSMLESPALHCQPSTSSAFPIGSSGFSLVK (UniProt P49790)	0.0821	-0.117
NUP210_Q8TEM1_605_LPPGSEHCSGIR (UniProt Q8TEM1)	-0.0258	-0.141
NUBP1_P53384_256_ESQIFPPTTGGAELMCQDLEVPLLGR (UniProt P53384)	-0.0546	-0.0563
NUP133_Q8WUM0_1037_QLNLSAMPVLTAPQLIGLYICEENRR (UniProt Q8WUM0)	-0.119	-0.16
NUDCD3_Q8IVD9_260_CVLVNLSK (UniProt Q8IVD9)	0.0274	0.0771
NUP133_Q8WUM0_457_IVFNAQGDSVLGAGACGGVPIIFSR (UniProt Q8WUM0)	-0.146	-0.142
NUP107_P57740_442_QLLPVCDTWEDTVWAYFR (UniProt P57740)	0.293	0.103
NT5DC1_Q5TFE4_119_HFLSDTGMACR (UniProt Q5TFE4)	-0.0403	-0.414
NUP98_P52948_1636_HLEALCLFK (UniProt P52948)	0.103	-0.0312
NUDT5_Q9UKK9_76_TLHYECIVLVK (UniProt Q9UKK9)	0.0411	0.00719
NVL_O15381_309_GVLLHGPPGCGK (UniProt O15381)	0.0215	0.162
NUP160_Q12769_931_ALECFCQAASEVGKEEFLDR (UniProt Q12769)	0.13	0.0495

Some of the entries so far, field by field:
NUSAP1_Q9BXS6_64_KGNENQDESQTSASSCDETEIQISNQEEAERQPLGHVTK (UniProt Q9BXS6)
  probe-labelled cysteine peptide fold change (10 µM) = -0.273
  probe-labelled cysteine peptide fold change (50 µM) = -0.0073
NUDT18_Q6ZVK8_185+189_HPLILPQELPCDLVCQR (UniProt Q6ZVK8)
  probe-labelled cysteine peptide fold change (10 µM) = -0.0276
  probe-labelled cysteine peptide fold change (50 µM) = 0.194
NUP133_Q8WUM0_530_AAFLQYCR (UniProt Q8WUM0)
  probe-labelled cysteine peptide fold change (10 µM) = 0.0754
  probe-labelled cysteine peptide fold change (50 µM) = 0.164
